Paper doi:10.1101/488304
No constants are given. Whether binding was seen depends on the method and setting. Binding seen in cells or lysates may run through a third protein. Some entries that bind do so weakly or less than the wild type.

Key:
[1] = target: T1, Podoplanin (endogenous in B16.F10 mouse melanoma cells) (mouse (endogenous in B16.F10)) (UniProt Q62011); test: co-IP
T1 sequence: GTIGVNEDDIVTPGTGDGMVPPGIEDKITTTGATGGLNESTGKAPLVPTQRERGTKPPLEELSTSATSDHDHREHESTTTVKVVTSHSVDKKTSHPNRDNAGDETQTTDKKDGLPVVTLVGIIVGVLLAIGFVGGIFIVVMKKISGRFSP

[2] = target: T2, Caveolin-1 (endogenous in B16.F10 mouse melanoma cells) (mouse (endogenous in B16.F10)) (UniProt P49817); test: co-IP
T2 sequence: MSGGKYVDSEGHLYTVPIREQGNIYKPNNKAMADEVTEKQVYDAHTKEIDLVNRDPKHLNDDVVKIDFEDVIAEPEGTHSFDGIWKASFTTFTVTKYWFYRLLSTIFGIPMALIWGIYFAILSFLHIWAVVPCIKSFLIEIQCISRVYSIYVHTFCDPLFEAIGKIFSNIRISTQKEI

| Binder | binding [1] | binding [2] |
| --- | --- | --- |
| Caveolin-1 (endogenous in B16.F10 mouse melanoma cells) (protein, UniProt P49817 1-178) MSGGKYVDSEGHLYTVPIREQGNIYKPNNKAMADEVTEKQVYDAHTKEIDLVNRDPKHLNDDVVKIDFEDVIAEPEGTHSFDGIWKASFTTFTVTKYWFYRLLSTIFGIPMALIWGIYFAILSFLHIWAVVPCIKSFLIEIQCISRVYSIYVHTFCDPLFEAIGKIFSNIRISTQKEI | binds | – |
| Podoplanin (endogenous in B16.F10 mouse melanoma cells) (protein, UniProt Q62011 23-172) GTIGVNEDDIVTPGTGDGMVPPGIEDKITTTGATGGLNESTGKAPLVPTQRERGTKPPLEELSTSATSDHDHREHESTTTVKVVTSHSVDKKTSHPNRDNAGDETQTTDKKDGLPVVTLVGIIVGVLLAIGFVGGIFIVVMKKISGRFSP | – | binds |
